Test results: PMC6179991
Results are given in words; binding and its absence hold for the method and conditions named. In cells and extracts the contact can be indirect. A result given as binding can be weak or reduced; the word gives no strength. Sequences can lack the tags named with a protein.

Molecular target: T1, Mouse Sirt1-FLAG-HA (Sirtuin 1) (mouse) (UniProt Q923E4)
T1 sequence: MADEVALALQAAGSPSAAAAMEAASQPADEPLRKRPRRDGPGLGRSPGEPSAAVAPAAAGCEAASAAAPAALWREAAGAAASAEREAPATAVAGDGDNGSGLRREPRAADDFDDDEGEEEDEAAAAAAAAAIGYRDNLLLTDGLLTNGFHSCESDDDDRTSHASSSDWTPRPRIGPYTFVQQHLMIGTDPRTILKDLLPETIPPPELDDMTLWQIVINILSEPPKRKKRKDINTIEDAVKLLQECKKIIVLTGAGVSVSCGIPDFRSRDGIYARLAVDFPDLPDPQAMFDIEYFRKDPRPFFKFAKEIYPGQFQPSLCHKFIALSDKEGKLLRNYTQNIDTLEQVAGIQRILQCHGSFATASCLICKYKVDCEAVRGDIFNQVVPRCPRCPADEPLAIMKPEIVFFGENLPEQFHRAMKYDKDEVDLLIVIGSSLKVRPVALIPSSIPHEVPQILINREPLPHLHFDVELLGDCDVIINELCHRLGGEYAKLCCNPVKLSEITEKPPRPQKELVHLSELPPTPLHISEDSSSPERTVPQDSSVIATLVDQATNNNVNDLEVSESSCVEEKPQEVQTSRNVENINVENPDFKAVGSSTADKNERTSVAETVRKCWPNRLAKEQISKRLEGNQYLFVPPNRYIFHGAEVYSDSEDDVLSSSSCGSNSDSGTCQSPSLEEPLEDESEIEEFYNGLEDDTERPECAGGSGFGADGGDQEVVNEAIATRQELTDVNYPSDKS
Experiment: co-IP; HEK293T cells transfected with pcDNA3.1-rEED-V5-His, LVI-Flag-HA-mSirt1 or both; lysis in 25 mM Tris pH 7.4, 150 mM NaCl, 1 mM EDTA, 1 mM EGTA, 1% Triton X-100; immunoprecipitation with V5 or HA antibody and protein A agarose overnight at 4 °C; blots probed for V5 or HA (reciprocal)

With “rat EED-V5-His (pcDNA3.1-rEED-V5-His) (from UniProt B5DF02)” as the substance, how does the binding read?
The binding was “binds”.
